This note sets out measurements from patent publication US8841077B2, “Biomarkers for amyotrophic lateral sclerosis and methods using the same” (Massachusetts General Hospital, priority 2006, dated 2014).

Format in all cases: in vivo, human
Series [1] in a line: Metabolomic profiling of blood plasma, 62 ALS subjects vs 62 control subjects (Example 3; Tables 7, 8). Particulars: blood plasma.
Series [2] can be described thus: Disease progression: plasma of 40 ALS subjects, random coefficient regression analysis over time (Table 16). Particulars: common slope of plasma metabolite level over month (0, 1, 6, 12), positive = level increased over time, negative = decreased.
Series [3] is described as follows: Disease progression: plasma of ALS subjects, matched-pairs T-test month 1 vs month 12 (Table 18). The settings on record: mean plasma level, month 1 vs month 12 after screening; positive = increase as disease progressed; 37 ALS patients.
Series [4] can be described thus: Metabolomic profiling (GC-MS/LC-MS) of CSF samples, ALS subjects vs control subjects (Example 1; Tables 3, 4). Particulars: CSF.
[5] abbreviates: ALS mean level compared to control mean level, positive = increase in ALS.
[6] abbreviates: ALS mean level vs control mean level, 62 ALS vs 62 control subjects, analytical platform LC-MS.
Where [7] appears, read: ALS mean level vs control mean level, 62 ALS vs 62 control subjects, analytical platform GC-MS.

Turning to `NC(CCS)C(=O)O` (racemic) [DL-homocysteine], the “% change in ALS” value in series [1] (setting [5]) and in series [1] (setting [6]) was 8% each time. In addition, the SLOPE in series [2] is listed as −0.005. The “% Change with disease progression” value in series [3] was −5%.
As for `O=C(O)C(=O)[C@@H](O)[C@H](O)[C@@H](O)CO` [2-keto-L-gulonic acid], the “% change in ALS” value in series [1] (setting [5]) and in series [1] (setting [7]) was 6% each time. The SLOPE in series [2] is reported as −0.006. Also, in series [3], the “% Change with disease progression” value is −8%.
Regarding `CC(O)CC(=O)O` (stereo not drawn) [3-hydroxybutanoic acid], the “% change in ALS” value in series [1] (setting [5]) was −4%. Moreover, in series [2], the SLOPE turned out to be 0.010. Besides, the “% Change with disease progression” value in series [3] was determined as 1%.
In the case of `N=C(N)NCCCC(=O)O` [4-Guanidinobutanoic acid], the “% change in ALS” value in series [1] (setting [5]) and in series [1] (setting [6]) was −7% throughout. Also, the SLOPE in series [2] was −0.016. Besides, the “% Change with disease progression” value in series [3] is −16%.
Consider `C[C@H](N)C(=O)O` [Alanine], for which the “% change in ALS” value in series [1] (setting [5]) and in series [1] (setting [7]) was −3% in each case. Further, the SLOPE in series [2] is recorded as 0.017. For the same compound, in series [3], the “% Change with disease progression” value turned out to be 16%.
On to `NC(=O)NC1NC(=O)NC1=O` (stereo not drawn) [Allantoin], for which, in series [1] (setting [5]), the “% change in ALS” value is −3%. The SLOPE in series [2] is 0.005. In addition, in series [3], the “% Change with disease progression” value is −8%.
On the same counts, the results for `O=C[C@@H](O)[C@H](O)[C@H](O)CO` [Arabinose] are 0%, −0.016 and −22%.
For `N[C@@H](CC(=O)O)C(=O)O` [Aspartate], the “% change in ALS” value in series [1] (setting [5]) and in series [1] (setting [6]) was 3% throughout. The SLOPE in series [2] was −0.002. Moreover, the “% Change with disease progression” value in series [3] turned out to be 1%.
Consider `C=CC1=C(C)/C(=C/C2=NC(=C\c3[nH]c(/C=C4\NC(=O)C(C)=C4C=C)c(C)c3CCC(=O)O)/C(CCC(=O)O)=C2C)NC1=O` [Biliverdin], for which the “% change in ALS” value in series [1] (setting [5]) and in series [1] (setting [6]) was 4% each time. Besides, the SLOPE in series [2] is −0.015. Besides, the “% Change with disease progression” value in series [3] was found to be 1%.
For the compound `CC(C)CCC[C@@H](C)[C@H]1CC[C@H]2[C@@H]3CC=C4C[C@@H](O)CC[C@]4(C)[C@H]3CC[C@]12C` [Cholesterol], the “% change in ALS” value in series [1] (setting [5]) and in series [1] (setting [7]) was 10% in each case. Also, in series [2], the SLOPE is listed as −0.004. For the same compound, in series [3], the “% Change with disease progression” value was −3%.
With `NC(=O)CC[C@H](N)C(=O)O` [Glutamine], the “% change in ALS” value in series [1] (setting [5]) and in series [1] (setting [7]) was −8% throughout. Also, the SLOPE in series [2] turned out to be 0.049. For the same compound, the “% Change with disease progression” value in series [3] came out at 65%.
In the case of `OCC(O)CO` [Glycerol], the “% change in ALS” value in series [1] (setting [5]) and in series [1] (setting [7]) was −7% each time. Besides, the SLOPE in series [2] is 0.007. For the same compound, in series [3], the “% Change with disease progression” value was found to be 12%.
Regarding `NCC(=O)O` [Glycine], the “% change in ALS” value in series [1] (setting [5]) and in series [1] (setting [7]) was 9% throughout. Moreover, in series [2], the SLOPE came to 0.070. Moreover, the “% Change with disease progression” value in series [3] was found to be 69%.
Turning to `NCCc1c[nH]cn1` [Histamine], the “% change in ALS” value in series [1] (setting [5]) and in series [1] (setting [6]) was 2% throughout. Besides, the SLOPE in series [2] is 0.017. In addition, the “% Change with disease progression” value in series [3] amounted to 24%.
As for `N[C@@H](Cc1c[nH]cn1)C(=O)O` [Histidine], the “% change in ALS” value in series [1] (setting [5]) and in series [1] (setting [7]) was −7% in each case. The SLOPE in series [2] was determined as 0.006. Further, the “% Change with disease progression” value in series [3] worked out at 4%.
In the case of `O[C@H]1[C@H](O)[C@@H](O)[C@H](O)[C@@H](O)[C@H]1O` [Inositol], the “% change in ALS” value in series [1] (setting [5]) and in series [1] (setting [7]) was 2% throughout. The SLOPE in series [2] is given as −0.005. Moreover, in series [3], the “% Change with disease progression” value was −10%.
Regarding `CC[C@H](C)[C@H](N)C(=O)O` [Isoleucine], in series [1] (setting [5]), the “% change in ALS” value was 2%. For the same compound, the SLOPE in series [2] was 0.003. Besides, the “% Change with disease progression” value in series [3] is 4%.
On the same counts, the results for `C[N+](C)(C)CCOP(=O)([O-])OC[C@H](O)CO` [L-alpha-glycerophosphorylcholine] are 0%, −0.028 and −43%.
Consider `CC(C)C[C@H](N)C(=O)O` [Leucine], for which the “% change in ALS” value in series [1] (setting [5]) and in series [1] (setting [7]) was 3% each time. In addition, the SLOPE in series [2] is recorded as 0.010. In addition, the “% Change with disease progression” value in series [3] was found to be 10%.
With `OC[C@H]1OC(O)[C@@H](O)[C@@H](O)[C@@H]1O` (stereo partly drawn) [Mannose], the “% change in ALS” value in series [1] (setting [5]) is 0%. Moreover, the SLOPE in series [2] amounted to 0.009. For the same compound, in series [3], the “% Change with disease progression” value stood at 12%.
With `CSCC[C@H](N)C(=O)O` [Methionine], the “% change in ALS” value in series [1] (setting [5]) and in series [1] (setting [6]) was −14% throughout. Also, in series [2], the SLOPE turned out to be 0.046. Besides, the “% Change with disease progression” value in series [3] amounted to 48%.
For `CCCCCCCCC(=O)O` [Nonanate], the “% change in ALS” value in series [1] (setting [5]) and in series [1] (setting [7]) was −4% in each case. In series [2], the SLOPE is reported as −0.001. Also, the “% Change with disease progression” value in series [3] was 0%.
As for `N[C@@H](Cc1ccccc1)C(=O)O` [Phenylalanine], the “% change in ALS” value in series [1] (setting [5]) and in series [1] (setting [6]) was −2% in each case. In addition, the SLOPE in series [2] was −0.001. Further, the “% Change with disease progression” value in series [3] is −3%.
As for `O=C(O)[C@@H]1CCCN1` [Praline], the “% change in ALS” value in series [1] (setting [5]) and in series [1] (setting [7]) was 3% in each case. Further, the SLOPE in series [2] is on record as −0.004. Besides, in series [3], the “% Change with disease progression” value is given as −6%.
For the compound `N[C@@H](CCCCN[C@@H](CCC(=O)O)C(=O)O)C(=O)O` [Saccharopine], the “% change in ALS” value in series [1] (setting [5]) and in series [1] (setting [6]) was −20% each time. In addition, the SLOPE in series [2] is on record as −0.004. The “% Change with disease progression” value in series [3] is reported as −7%.
Consider `N[C@@H](CO)C(=O)O` [Serine], for which the “% change in ALS” value in series [1] (setting [5]) and in series [1] (setting [7]) was −4% each time. In addition, the SLOPE in series [2] stood at 0.026. Moreover, the “% Change with disease progression” value in series [3] was 28%.
Turning to `C[C@@H](O)[C@H](N)C(=O)O` [Threonine], the “% change in ALS” value in series [1] (setting [5]) and in series [1] (setting [7]) was −16% in each case. Further, the SLOPE in series [2] was found to be 0.017. Further, in series [3], the “% Change with disease progression” value came to 16%.
In the case of `N[C@@H](Cc1c[nH]c2ccccc12)C(=O)O` [Tryptophan], the “% change in ALS” value in series [1] (setting [5]) came to 0%. Moreover, in series [2], the SLOPE is given as −0.004. In addition, in series [3], the “% Change with disease progression” value is given as −5%.
On the same counts, the results for `N[C@@H](Cc1ccc(O)cc1)C(=O)O` [Tyrosine] are −1%, −0.008 and −8%.
`NC(N)=O` [Urea]: the “% change in ALS” value in series [1] (setting [5]) and in series [1] (setting [7]) was 15% each time. Also, the SLOPE in series [2] was −0.002. In series [3], the “% Change with disease progression” value was 1%.
Regarding `CC(C)[C@H](N)C(=O)O` [Valine], the “% change in ALS” value in series [1] (setting [5]) and in series [1] (setting [7]) was 7% each time. For the same compound, the SLOPE in series [2] is listed as 0.011. In series [3], the “% Change with disease progression” value turned out to be 12%.
In the case of `Cc1c(C)c2c(c(C)c1O)CC[C@@](C)(CCC[C@H](C)CCC[C@H](C)CCCC(C)C)O2` [alpha-tocopherol], the “% change in ALS” value in series [1] (setting [5]) and in series [1] (setting [7]) was 48% each time. The SLOPE in series [2] is recorded as −0.046. Moreover, the “% Change with disease progression” value in series [3] was −21%.
With `CCCCC/C=C\C/C=C\C/C=C\C/C=C\CCCC(=O)O` [arachidonic acid], the “% change in ALS” value in series [1] (setting [5]) and in series [1] (setting [7]) was 47% throughout. Besides, the SLOPE in series [2] was −0.006. The “% Change with disease progression” value in series [3] was −5%.
Take `O=C(O)c1ccccc1` [benzoic acid]: the “% change in ALS” value in series [1] (setting [5]) and in series [1] (setting [7]) was −4% throughout. Also, the SLOPE in series [2] stood at 0.013. In addition, in series [3], the “% Change with disease progression” value was found to be 2%.
In the case of `O=C(O)C(=O)CO` [beta-hydroxypyruvic acid], the “% change in ALS” value in series [1] (setting [5]) and in series [1] (setting [6]) was 30% each time. Further, the SLOPE in series [2] was 0.010. The “% Change with disease progression” value in series [3] turned out to be 3%.
Consider `OC[C@@H](O)[C@@H](O)CO` [meso-erythritol], for which the SLOPE in series [2] is −0.002. Besides, the “% Change with disease progression” value in series [3] is −7%.
For the compound `C[S+]([O-])CC[C@H](N)C(=O)O` (stereo partly drawn) [methionine-sulfoxide], the SLOPE in series [2] is −0.023. In addition, in series [3], the “% Change with disease progression” value was −19%.
With `O=C(O)C(=O)O` [oxalic acid], in series [4] (ALS mean as compared to control mean, T-tests of ALS vs. Controls), the “% change in ALS” value was 8%. Besides, the “Increase (+) or Decrease (−) in ALS” value in series [4] (mean in ALS samples vs control samples, T-tests) is on record as “+”. Besides, in series [2], the SLOPE is recorded as −0.004. Moreover, in series [3], the “% Change with disease progression” value was −6%.
On to `O=Cc1ccc(O)cc1` [p-hydroxybenzaldehyde], for which the SLOPE in series [2] is on record as −0.002. Also, the “% Change with disease progression” value in series [3] is 0%.
Regarding `CC(C)(CO)[C@@H](O)C(=O)NCCC(=O)O` [pantothenic acid], the SLOPE in series [2] was 0.057. Further, in series [3], the “% Change with disease progression” value worked out at 33%.
In the same order, the values of `C=C(OP(=O)(O)O)C(=O)O` [phosphoenolpyruvate] are 0.007 and 1%.
On the same counts, the results for Lactate are 0.018 and 2%.
Turning to n-dodecanoate, in series [2], the SLOPE was −0.018. Also, the “% Change with disease progression” value in series [3] was −22%.
